Data on one molecule can be found in patent US20220056146A1.

The target in this test is T1, PVR (CD 155) as cell membrane receptor in the binding assay with over 5000 membrane receptors (UniProt P15151).
T1 sequence (looked up): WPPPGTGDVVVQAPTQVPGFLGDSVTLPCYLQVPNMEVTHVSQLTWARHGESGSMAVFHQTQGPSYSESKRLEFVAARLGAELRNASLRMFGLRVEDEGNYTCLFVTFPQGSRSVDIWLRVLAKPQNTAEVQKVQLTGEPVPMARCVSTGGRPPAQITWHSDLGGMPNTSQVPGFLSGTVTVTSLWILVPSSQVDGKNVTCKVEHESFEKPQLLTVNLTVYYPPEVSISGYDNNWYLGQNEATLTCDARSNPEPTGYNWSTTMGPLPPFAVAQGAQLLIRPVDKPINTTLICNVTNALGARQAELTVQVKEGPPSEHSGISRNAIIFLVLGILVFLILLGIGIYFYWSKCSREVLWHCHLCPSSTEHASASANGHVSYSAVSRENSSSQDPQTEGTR
The test can be described thus: binding assay on over 5000 membrane receptors, inverse hit.

No constants are given. Whether binding was seen depends on the method and setting. Some entries that bind do so weakly or less than the wild type.

B1: CD 226 (DNAM 1) as cell membrane receptor (receptor, UniProt Q15762 19-336, looked up)
chain: EEVLWHTSVPFAENMSLECVYPSMGILTQVEWFKIGTQQDSIAIFSPTHGMVIRKPYAERVYFLNSTMASNNMTLFFRNASEDDVGYYSCSLYTYPQGTWQKVIQVVQSDSFEAAVPSNSHIVSEPGKNVTLTCQPQMTWPVQAVRWEKIQPRQIDLLTYCNLVHGRNFTSKFPRQIVSNCSHGRWSVIVIPDVTVSDSGLYRCYLQASAGENETFVMRLTVAEGKTDNQYTLFVAGGTVLLLLFVISITTIIVIFLNRRRRRERRDLFTESWDTQKAPNNYRSPISTSQPTNQSMDDTREDIYVNYPTFSRRPKTRV
Take B1: the binding entry was “binds”.
